Holding throughout (experiment): co-IP
The target of experiment [1] is Thr156-phosphorylated μ2 adaptin of the AP-2 complex (endogenous, K562) (human (endogenous in K562)) (UniProt Q96CW1).
In experiment [2] the target is T1, SEC24B (endogenous, K562) (human (endogenous in K562)) (UniProt O95487).
T1 sequence: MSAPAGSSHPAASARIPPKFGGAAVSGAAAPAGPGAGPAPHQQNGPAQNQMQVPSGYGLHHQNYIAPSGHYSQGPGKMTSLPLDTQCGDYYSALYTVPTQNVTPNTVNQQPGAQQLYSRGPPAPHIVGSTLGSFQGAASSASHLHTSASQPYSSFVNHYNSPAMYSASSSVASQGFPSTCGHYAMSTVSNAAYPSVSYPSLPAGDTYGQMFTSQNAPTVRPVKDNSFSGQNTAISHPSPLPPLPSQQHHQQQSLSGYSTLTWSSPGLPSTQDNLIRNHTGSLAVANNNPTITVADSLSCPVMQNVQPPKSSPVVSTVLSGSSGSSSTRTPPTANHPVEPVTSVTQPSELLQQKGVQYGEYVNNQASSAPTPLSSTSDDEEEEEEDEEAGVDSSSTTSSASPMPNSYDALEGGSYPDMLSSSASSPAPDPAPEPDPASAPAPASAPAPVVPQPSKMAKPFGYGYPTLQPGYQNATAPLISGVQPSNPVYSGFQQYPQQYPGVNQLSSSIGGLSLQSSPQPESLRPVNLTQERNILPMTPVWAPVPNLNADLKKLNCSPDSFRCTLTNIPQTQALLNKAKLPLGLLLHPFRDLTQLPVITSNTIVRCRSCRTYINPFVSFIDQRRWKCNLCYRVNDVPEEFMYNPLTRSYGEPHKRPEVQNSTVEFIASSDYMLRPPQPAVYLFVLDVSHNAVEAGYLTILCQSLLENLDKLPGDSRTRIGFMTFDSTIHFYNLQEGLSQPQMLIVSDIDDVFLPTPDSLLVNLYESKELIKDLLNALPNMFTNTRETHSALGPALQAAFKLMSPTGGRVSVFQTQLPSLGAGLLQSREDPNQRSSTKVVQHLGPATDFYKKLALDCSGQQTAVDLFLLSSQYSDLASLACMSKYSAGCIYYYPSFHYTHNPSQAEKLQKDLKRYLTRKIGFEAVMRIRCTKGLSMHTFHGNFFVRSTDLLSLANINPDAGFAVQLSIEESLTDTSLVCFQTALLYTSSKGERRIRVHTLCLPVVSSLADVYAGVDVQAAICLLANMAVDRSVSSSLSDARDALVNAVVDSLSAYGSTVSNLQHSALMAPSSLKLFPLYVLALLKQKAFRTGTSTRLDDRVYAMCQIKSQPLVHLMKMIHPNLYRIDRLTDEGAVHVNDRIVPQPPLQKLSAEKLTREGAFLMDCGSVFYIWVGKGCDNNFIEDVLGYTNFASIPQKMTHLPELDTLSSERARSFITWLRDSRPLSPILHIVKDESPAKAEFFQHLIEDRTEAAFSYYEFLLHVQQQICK

Amino acid sequences for entries named in this document (tags omitted). A change or cut given only in a name is not applied to a line headed by its entry. Chains listed by the source or under a name are the forms on record and can include a tag or linker.
UniProt Q96CW1: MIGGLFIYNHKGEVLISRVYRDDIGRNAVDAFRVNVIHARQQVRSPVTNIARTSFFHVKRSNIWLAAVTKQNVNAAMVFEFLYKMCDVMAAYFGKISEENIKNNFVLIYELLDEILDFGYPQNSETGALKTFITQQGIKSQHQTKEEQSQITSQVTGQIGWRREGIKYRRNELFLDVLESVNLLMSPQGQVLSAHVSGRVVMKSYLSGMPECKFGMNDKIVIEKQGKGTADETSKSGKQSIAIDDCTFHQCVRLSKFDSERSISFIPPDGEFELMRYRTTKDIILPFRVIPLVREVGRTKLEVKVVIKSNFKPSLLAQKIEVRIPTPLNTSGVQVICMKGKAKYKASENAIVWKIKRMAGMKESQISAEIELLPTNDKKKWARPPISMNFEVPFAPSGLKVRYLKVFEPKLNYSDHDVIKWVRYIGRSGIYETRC
UniProt O15027: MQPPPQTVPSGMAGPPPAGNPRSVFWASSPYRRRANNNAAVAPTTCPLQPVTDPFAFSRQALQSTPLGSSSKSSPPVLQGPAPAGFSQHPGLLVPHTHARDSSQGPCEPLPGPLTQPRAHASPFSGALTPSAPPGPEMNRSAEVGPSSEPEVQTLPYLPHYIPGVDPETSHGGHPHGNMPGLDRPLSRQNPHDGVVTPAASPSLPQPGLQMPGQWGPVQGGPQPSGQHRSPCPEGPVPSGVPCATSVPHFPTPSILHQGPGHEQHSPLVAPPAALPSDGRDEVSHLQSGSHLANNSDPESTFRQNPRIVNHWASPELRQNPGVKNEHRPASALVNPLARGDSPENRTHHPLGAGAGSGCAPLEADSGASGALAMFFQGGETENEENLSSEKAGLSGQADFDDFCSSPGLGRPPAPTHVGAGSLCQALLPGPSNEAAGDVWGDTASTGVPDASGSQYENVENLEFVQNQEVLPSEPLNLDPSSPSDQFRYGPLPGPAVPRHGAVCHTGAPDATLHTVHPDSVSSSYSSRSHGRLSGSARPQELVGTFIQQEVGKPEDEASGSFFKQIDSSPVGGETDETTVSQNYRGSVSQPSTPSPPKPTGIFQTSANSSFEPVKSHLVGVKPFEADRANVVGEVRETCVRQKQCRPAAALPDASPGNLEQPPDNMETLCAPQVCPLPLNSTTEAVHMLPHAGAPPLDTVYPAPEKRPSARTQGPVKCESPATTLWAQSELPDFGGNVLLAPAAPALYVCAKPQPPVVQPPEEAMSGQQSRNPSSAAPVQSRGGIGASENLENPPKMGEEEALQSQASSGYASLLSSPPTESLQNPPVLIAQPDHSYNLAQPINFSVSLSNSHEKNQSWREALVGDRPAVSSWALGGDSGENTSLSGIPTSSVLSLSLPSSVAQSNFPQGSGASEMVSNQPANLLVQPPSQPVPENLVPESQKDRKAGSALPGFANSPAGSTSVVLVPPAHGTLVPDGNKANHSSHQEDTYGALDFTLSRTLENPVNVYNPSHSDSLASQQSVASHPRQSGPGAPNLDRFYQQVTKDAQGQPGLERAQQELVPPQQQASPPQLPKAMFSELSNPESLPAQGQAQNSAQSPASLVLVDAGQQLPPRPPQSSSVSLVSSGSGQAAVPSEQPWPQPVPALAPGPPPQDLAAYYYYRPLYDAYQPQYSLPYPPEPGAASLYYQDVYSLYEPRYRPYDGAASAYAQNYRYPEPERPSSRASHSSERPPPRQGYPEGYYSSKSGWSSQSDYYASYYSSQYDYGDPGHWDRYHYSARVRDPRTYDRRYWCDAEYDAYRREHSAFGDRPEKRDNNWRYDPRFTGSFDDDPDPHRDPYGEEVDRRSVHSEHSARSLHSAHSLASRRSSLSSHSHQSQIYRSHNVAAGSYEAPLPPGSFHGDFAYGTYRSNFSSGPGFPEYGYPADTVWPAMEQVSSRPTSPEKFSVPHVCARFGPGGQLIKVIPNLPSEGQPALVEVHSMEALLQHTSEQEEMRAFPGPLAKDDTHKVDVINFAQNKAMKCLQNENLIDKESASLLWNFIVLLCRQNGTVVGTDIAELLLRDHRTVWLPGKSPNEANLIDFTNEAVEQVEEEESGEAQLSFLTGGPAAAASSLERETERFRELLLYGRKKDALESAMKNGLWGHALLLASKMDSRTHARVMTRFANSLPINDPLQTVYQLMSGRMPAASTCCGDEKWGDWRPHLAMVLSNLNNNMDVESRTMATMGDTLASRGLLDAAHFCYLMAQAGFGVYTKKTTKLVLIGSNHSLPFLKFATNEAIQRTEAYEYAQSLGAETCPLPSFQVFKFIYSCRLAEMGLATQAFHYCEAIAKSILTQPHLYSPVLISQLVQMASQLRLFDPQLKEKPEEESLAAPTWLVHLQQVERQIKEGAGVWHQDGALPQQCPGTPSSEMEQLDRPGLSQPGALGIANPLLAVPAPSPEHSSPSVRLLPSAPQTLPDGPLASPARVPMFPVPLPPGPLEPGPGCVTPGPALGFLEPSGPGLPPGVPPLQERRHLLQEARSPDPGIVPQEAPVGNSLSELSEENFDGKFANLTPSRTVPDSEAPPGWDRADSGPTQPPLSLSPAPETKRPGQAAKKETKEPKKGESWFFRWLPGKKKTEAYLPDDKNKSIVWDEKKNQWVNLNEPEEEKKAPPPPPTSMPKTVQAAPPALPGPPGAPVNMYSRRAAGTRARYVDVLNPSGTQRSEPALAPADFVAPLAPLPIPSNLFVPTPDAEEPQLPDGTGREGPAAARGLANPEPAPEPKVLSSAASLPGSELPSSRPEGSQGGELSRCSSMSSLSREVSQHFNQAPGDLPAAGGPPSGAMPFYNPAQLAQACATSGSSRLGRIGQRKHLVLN
UniProt Q9NSY1: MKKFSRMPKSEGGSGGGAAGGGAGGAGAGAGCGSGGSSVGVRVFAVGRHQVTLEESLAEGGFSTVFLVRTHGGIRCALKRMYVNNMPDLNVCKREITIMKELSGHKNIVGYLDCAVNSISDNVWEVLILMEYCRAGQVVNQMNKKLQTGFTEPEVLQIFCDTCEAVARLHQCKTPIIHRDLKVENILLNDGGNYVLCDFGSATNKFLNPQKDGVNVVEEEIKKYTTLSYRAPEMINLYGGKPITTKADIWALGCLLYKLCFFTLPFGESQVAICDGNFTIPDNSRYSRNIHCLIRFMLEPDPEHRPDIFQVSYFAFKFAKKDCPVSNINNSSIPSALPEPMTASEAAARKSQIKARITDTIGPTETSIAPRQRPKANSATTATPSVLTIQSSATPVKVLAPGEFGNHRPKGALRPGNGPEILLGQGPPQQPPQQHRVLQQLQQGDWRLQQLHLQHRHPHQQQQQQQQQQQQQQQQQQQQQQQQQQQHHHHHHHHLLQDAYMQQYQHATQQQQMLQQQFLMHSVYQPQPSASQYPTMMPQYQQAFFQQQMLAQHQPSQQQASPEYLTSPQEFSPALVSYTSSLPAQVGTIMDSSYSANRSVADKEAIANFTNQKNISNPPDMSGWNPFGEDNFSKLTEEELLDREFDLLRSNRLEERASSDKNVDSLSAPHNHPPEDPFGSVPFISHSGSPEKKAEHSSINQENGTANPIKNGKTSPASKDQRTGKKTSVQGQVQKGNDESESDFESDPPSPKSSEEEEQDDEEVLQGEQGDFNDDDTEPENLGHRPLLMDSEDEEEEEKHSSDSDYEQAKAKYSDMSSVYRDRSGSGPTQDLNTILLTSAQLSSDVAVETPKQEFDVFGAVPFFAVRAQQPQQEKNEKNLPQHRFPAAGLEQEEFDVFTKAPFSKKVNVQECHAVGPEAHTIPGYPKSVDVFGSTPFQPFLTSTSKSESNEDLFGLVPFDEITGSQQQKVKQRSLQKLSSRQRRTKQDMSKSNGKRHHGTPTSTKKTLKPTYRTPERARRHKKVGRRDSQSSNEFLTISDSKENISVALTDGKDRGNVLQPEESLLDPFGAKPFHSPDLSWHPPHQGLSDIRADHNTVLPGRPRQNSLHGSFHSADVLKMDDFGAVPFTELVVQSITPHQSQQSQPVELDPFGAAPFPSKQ
BMP2K-S, untagged, ectopically expressed in HEK293 cells (pcDNA3.1-BMP2K-S) (Q9NSY1-2, form named): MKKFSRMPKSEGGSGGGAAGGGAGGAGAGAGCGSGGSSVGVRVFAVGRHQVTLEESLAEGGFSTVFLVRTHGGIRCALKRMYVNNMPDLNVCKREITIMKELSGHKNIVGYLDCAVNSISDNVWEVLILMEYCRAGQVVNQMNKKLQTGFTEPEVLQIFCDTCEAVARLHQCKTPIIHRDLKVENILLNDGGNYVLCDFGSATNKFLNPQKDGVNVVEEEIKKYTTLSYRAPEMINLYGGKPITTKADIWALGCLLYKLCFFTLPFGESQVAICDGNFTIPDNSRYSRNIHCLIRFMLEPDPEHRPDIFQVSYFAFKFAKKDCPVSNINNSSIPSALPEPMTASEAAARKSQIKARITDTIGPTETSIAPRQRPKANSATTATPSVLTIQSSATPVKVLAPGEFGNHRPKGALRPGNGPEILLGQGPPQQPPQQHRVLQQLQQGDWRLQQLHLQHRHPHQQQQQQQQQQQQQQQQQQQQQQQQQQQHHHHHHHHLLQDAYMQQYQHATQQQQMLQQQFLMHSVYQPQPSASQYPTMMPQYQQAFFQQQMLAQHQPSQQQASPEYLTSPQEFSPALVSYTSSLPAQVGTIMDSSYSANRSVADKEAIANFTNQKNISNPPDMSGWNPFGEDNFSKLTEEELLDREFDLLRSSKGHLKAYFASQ

For experiment [3], the target named is EGFP-tagged SEC16A (pEGFP-SEC16A) (UniProt O15027).

From doi:10.1101/2020.05.05.079970 come the findings set out here.

No constants are given. Whether binding was seen depends on the method and setting. Binding seen in cells or lysates may run through a third protein. Some binding calls cover weakened binding; strength is not graded here.

On to “BMP2K-S, the shorter splicing variant of bone morphogenetic protein 2-inducible kinase (endogenous, K562) (from UniProt Q9NSY1-2 1-662)”, for which, in experiment [1], the binding entry is recorded as “no binding”.
As for “BMP2K-L, the longer splicing variant of bone morphogenetic protein 2-inducible kinase (endogenous, K562) (from UniProt Q9NSY1 1-1161)”, the values for the binding entry in experiment [2] and in experiment [1] were “no binding” and “binds”, respectively.
For “BMP2K-S, untagged, ectopically expressed in HEK293 cells (pcDNA3.1-BMP2K-S) (from UniProt Q9NSY1-2 1-662)”, in experiment [3], the binding entry was “binds”.
